Like-named read-outs stand apart in the source and are kept apart here. The list shows a part of the results.
Tested on: T1, CTL2-GFP (C. trachomatis L2/434/Bu, GFP-expressing)
T1 construct: L2/434/Bu, GFP-expressing
Design: species or system HeLa; Intracellular C. trachomatis growth in HeLa cells, bulk GFP fluorescence relative to DMSO
Conditions: bulk GFP, single well, 28.5 h, 10 µM, inhibitor

Structure (SMILES) | % of control remaining | % of control remaining (Bulk GFP fluorescence)
O=C(NCCN1CCc2ccccc21)C1CC2C=CC1O2 (centres unmarked) [CBK283158] | 105.042% | –
Cc1cc(NS(=O)(=O)c2ccccc2Br)n(C)n1 [CBK067376] | 97.3197% | –
C=CCC1c2cccc(C(=O)O)c2C(=O)N1c1cccc(OC)c1 (centres unmarked) [CBK113160] | 119.482% | –
O=C(O)CNC(=O)CN1C(=O)c2ccc(C(=O)O)cc2C1=O [CBK264080] | 100% | –
COc1nc(OCCNS(=O)(=O)c2ccc(C)cc2)nc(N(C)C)n1 [CBK266752] | 104.157% | –
COc1cccc2c(=O)n(CCCn3nc(C)nc3C)cnc12 [CBK307295] | 104.028% | –
CC(=O)Nc1ccc(-c2cncc(NC3CCC(O)CC3)n2)cc1 (centres unmarked) [CBK065886] | 190.718% | –
Clc1ccccc1-c1nnc(Cn2c3ccc(Br)cc3c3nc4ccccc4nc32)o1 [CBK269091] | 114.748% | –
O=C(Nc1ccccc1[N+](=O)[O-])c1cc(S(=O)(=O)NCc2ccccc2)c(Cl)cc1Cl [CBK263240] | 95.6236% | –
CN(C)S(=O)(=O)NC1CC(C)(C)Cc2c1cnn2-c1ccc(F)cc1 (centres unmarked) [CBK306646] | 103.483% | –
COc1cc(/C=N/NC(=O)CCN2CCN(C)CC2)cc(OC)c1O [CBK261500] | 110.484% | –
COc1ccc(C(N)C2(O)CCN(Cc3ccccc3)CC2)cc1 (centres unmarked) [CBK091386] | 124.042% | –
CN1CCN(c2nc(-c3cc4ccccc4s3)cn3ccnc23)CC1 [CBK066388] | 93.2809% | –
Cc1cccn2cc(CC(=O)NC3(C#N)CCCCC3)nc12 [CBK306252] | 102.729% | –
Cc1onc(-c2ccccc2)c1CNC(=O)Cn1cc(C)c(=O)[nH]c1=O [CBK144094] | 133.476% | –
CN(C)c1ccc(NC(=O)C(Cc2ccccc2)N2C(=O)c3ccccc3C2=O)cc1 (centres unmarked) [CBK262413] | 103.362% | –
Cc1ccc(S(=O)(=O)/N=C(/NCc2ccc(Cl)cc2)Nc2nc(C)cc(C)n2)cc1 [CBK263785] | 105.877% | –
N#Cc1cc(CN2CCCN(S(=O)(=O)c3ccc(C(=O)c4ccccc4)cc3)CC2)ccc1F [CBK062768] | 83.2407% | –
COC(=O)c1ccc(N2CCN(C(C)c3nnc(C)o3)C(C)C2)cc1 (centres unmarked) [CBK304926] | 121.384% | –
CCN1CCN(C(=O)c2ccc(CN(c3ccc(C)c(C)c3)S(C)(=O)=O)cc2)CC1 [CBK267132] | 167.904% | –
Cc1cc(OCCCCNCCO)ccc1Cl [CBK033516] | 93.7722% | –
Cn1ncc2ccc(-c3nnn[nH]3)cc21 [CBK304776] | 121.001% | –
COc1ncc(-c2cn3ccnc3c(N3CCN(CCO)CC3)n2)c(OC)n1 [CBK037869] | 88.7637% | –
CC1CCc2n[nH]c(C(=O)N3CCC(O)C(C)C3)c2C1 (centres unmarked) [CBK283207] | 114.213% | –
CCC(C)NCc1cccc(Oc2ncccn2)c1 (centres unmarked) [CBK288090] | 110.146% | –
CC1(C)C2C(=O)C(c3ccccn3)=C(N)N2C(C)(C)C1(C)C (centres unmarked) [CBK022153] | 120.93% | –

Structure (SMILES) | % of control remaining | % of control remaining (Bulk GFP fluorescence)
Fc1cc2c3c(c1)c1c(n3CCO2)CCNCC1 [CBK018018C] | 92.4055% | –
O=C(NCc1ccccn1)c1cc(-c2ccc(Cl)cc2)on1 [CBK116558] | 157.457% | –
c1cnc2cc(Oc3ccc4nccnc4c3)ccc2n1 [CBK267266] | 128.565% | –
COc1ccc(CNC(=O)N2CCN(c3cc(C(F)(F)F)ccn3)CC2)cc1OC [CBK162344] | 113.764% | –
O=C(Nc1ccccc1)c1ccc(N2CCN(c3ccccn3)CC2)c(S(=O)(=O)N2CCOCC2)c1 [CBK266810] | 125.458% | –
COC(=O)C1=C(Cn2ccc(C(F)(F)F)n2)NC(=O)NC1c1cc(C)ccc1C (centres unmarked) [CBK268792] | 72.8295% | –
COc1ccc(S(=O)(=O)N(c2ccccc2)C2CCNCC2)cc1OC [CBK165076T] | 141.188% | –
OC(Cn1ccnc1)C1CCCCC1 (centres unmarked) [CBK010092] | 141.207% | –
O=C1NCCCCC1N1CCS(=O)(=O)CC1 (centres unmarked) [CBK017083] | 135.087% | –
Cc1c(Cl)ccc2c(C(=O)Nc3ccc(S(=O)(=O)N4CCOCC4)cc3)cc(-c3cccnc3)nc12 [CBK267718] | 139.339% | –
CN(C)S(=O)(=O)Nc1cccc2cc[nH]c12 [CBK159505] | 96.7631% | –
COc1ncc(C(=O)NCc2cccnc2N(C)C2CCCCC2)cn1 [CBK306870] | 174.897% | –
CC1(OCCCN2CCCCC2)SC(NC2CC3CCC2C3)=NC1=O (centres unmarked) [CBK115611] | 128.674% | –
O=C(O)C(CCCCN1C(=O)c2ccccc2C1=O)N1C(=O)c2ccccc2C1=O (centres unmarked) [CBK265250] | 100% | –
CC1=NN(c2ccc(S(N)(=O)=O)cc2)C(=O)/C1=C\c1ccc(-c2cccc(C(=O)O)c2)o1 [CBK263483] | 111.114% | –
COc1cccc(Cc2c(C)nc3c(C(=O)NCC4COc5ccccc5O4)cnn3c2C)c1 (centres unmarked) [CBK162064] | 100.235% | –
CC(C)C(=O)Nc1ccc2c(-c3ccc4c(c3)OCCCO4)ccnc2n1 [CBK073675] | 121.207% | –
CC(=O)Nc1ccc(CNc2ccc(C#N)cn2)cc1 [CBK297790] | 130.487% | –
O=C(c1ccccc1C(F)(F)F)N1CCC(n2c(=O)[nH]c3ccccc32)CC1 [CBK149706] | 77.3286% | –
CCOC(=O)COc1c(Cl)cc(/C=C/c2[nH]c(=O)[nH]c(=O)c2[N+](=O)[O-])cc1Cl [CBK267003] | 118.031% | –
O=C(c1ccoc1)N1CCC2(CCCN(Cc3ccc4ccccc4c3)C2)C1 (centres unmarked) [CBK132811] | 70.4231% | –
CC(=O)N[C@H]1CO[C@H]2[C@@H]1OC[C@@H]2Nc1nccc(-c2cccc(F)c2)n1 [CBK289534] | 103.231% | –
COc1ccc(C(C)C)cc1-c1cn2ccnc2c(NC2CCOCC2)n1 [CBK066320] | 146.611% | –
COc1ccc2nc(-n3nc(C(=O)NCc4ccncc4)c4ccccc43)sc2c1 [CBK048521] | 118.392% | –
Cc1cc(/C=C(/C#N)c2cccc(F)c2)c(C)n1-c1ccc(S(N)(=O)=O)cc1 [CBK268268] | 93.777% | –
O=C(O)c1cccc(NC(=O)c2ccc(COc3ccc(-c4ccccc4)cc3)o2)c1 [CBK299778] | 135.719% | –

Structure (SMILES) | % of control remaining | % of control remaining (Bulk GFP fluorescence)
O=C(Nc1nnc(C2=COCCO2)o1)c1ccco1 [CBK287412] | 142.866% | –
CCN(Cc1ccccc1)c1ccc(C2NC(=O)NC(O)(C(F)(F)F)C2C(=O)c2cccnc2)cc1 (centres unmarked) [CBK264999] | 140.429% | –
CCCc1nnc(C(=O)NC(=O)NCCCN(C)C)s1 [CBK018853] | 113.154% | –
Cc1nn(CC(=O)N2C(C)CCCC2C)c(=O)c2cc3occc3n12 (centres unmarked) [CBK283555] | 109.299% | –
O=C1CC[C@@H](NCc2ccccn2)[C@H](c2cc(F)cc(F)c2)N1 [CBK282911] | 78.5935% | –
O=C(NC1CCCCC1)O[C@@H]1CO[C@H]2[C@@H]1OC[C@@H]2NS(=O)(=O)Cc1ccccc1 [CBK289467] | 119.941% | –
COc1cccc(NC(=O)c2ccncc2Cl)c1 [CBK174695] | 111.23% | –
O=C(O)C(Cc1ccccc1)Nc1ncnc2c1oc1ccccc12 (centres unmarked) [CBK266719] | 120.412% | –
O=C(c1cc(S(=O)(=O)NCc2ccco2)c(Cl)cc1Cl)N1CCC1 [CBK305004] | 113.175% | –
CC(SCc1ccccc1)C(=O)NCC1CCN(c2ccccc2)C1 (centres unmarked) [CBK298329] | 137.816% | –
O=C(COc1ccccc1)Nc1ccc(N2CCOCC2)c2nonc12 [CBK268149] | 93.1146% | –
C=CCn1c(CCCNC=O)nc2ccccc21 [CBK269375] | 158.162% | –
CC(O)c1cc2c(cc1NC(=O)c1cnn3c1NC(c1ccco1)CC3C(F)(F)F)OCO2 (centres unmarked) [CBK268850] | 153.108% | –
COc1ccc(OC)c(-n2cnc3c2NC(=O)CC3c2ccccc2Cl)c1 (centres unmarked) [CBK287983] | 121.815% | –
CC(C)NC(=O)c1cc(C2CCN(C(=O)CCOc3ccccc3F)C2)nc2ccccc12 (centres unmarked) [CBK285917] | 91.7158% | –
CN1CCN(C)C(COc2cc(C(F)(F)F)ccn2)C1 (centres unmarked) [CBK113460] | 102.125% | –
CN1C(=O)c2ccccc2C(=O)[C@@]2(C)CN(C(=O)c3ccccc3)C[C@@H]12 [CBK281685] | 134.294% | –
Cc1c(C(=O)O)sc2nc(SCC(=O)NCc3ccccc3)[nH]c(=O)c12 [CBK287609] | – | 109.85%
CCNC(=S)N1CCN(CCNC=C2C(=O)CC(c3ccco3)CC2=O)CC1 (centres unmarked) [CBK264742] | 119.529% | –
Cc1nnc(SCC(=O)Nc2nsc(-c3ccc(Cl)cc3)n2)s1 [CBK266525] | 120.893% | –
COc1ccc([C@@]23CC[C@@H](NC(=O)Cc4ccc(Cl)cc4)CC2N(C)CC3)cc1OC (some centres unmarked) [CBK074971T] | 114.583% | –
COc1cccc(OC)c1-c1cn2ccnc2c(N(C)CCN(C)C)n1 [CBK066398] | 188.984% | –
Cn1c(N2CCCC(C(=O)NCC3CC3)C2)nc2ccccc21 (centres unmarked) [CBK283987] | 121.192% | –
CCN(CC)C(=O)CN1C(=O)N2CCCN=C2c2ccc(Cl)cc21 [CBK284386] | 100.928% | –
O=c1[nH]c2ncc(-c3cccnc3)nc2n1Cc1ccc(Cl)cc1 [CBK064561] | 120.679% | –

As a working copy, part of the list above:
Structure (SMILES) | % of control remaining | % of control remaining (Bulk GFP fluorescence)
CN1C(=O)c2ccccc2C(=O)[C@@]2(C)CN(C(=O)c3ccccc3)C[C@@H]12 [CBK281685] | 134.294% | –
Cc1c(C(=O)O)sc2nc(SCC(=O)NCc3ccccc3)[nH]c(=O)c12 [CBK287609] | – | 109.85%
CCNC(=S)N1CCN(CCNC=C2C(=O)CC(c3ccco3)CC2=O)CC1 (centres unmarked) [CBK264742] | 119.529% | –
Cc1nnc(SCC(=O)Nc2nsc(-c3ccc(Cl)cc3)n2)s1 [CBK266525] | 120.893% | –
